Experimental data: patent US10532066B2, “Surfactant lipids, compositions thereof, and uses thereof” (National Jewish Health, priority 2007, dated 2020)
Some entries share one result that the patent states for a list of compounds. At least one compound was matched to its structure with a doubt left.

Legend:
[1] = system: primary rat alveolar macrophages; assay: LPS-induced NO production by rat alveolar macrophages; type: cell-based; settings: LPS 10 ng/ml, 24 h
Protocol: (§1) FIG. 1. Anionic phospholipids inhibit inflammatory mediator production induced by LPS. Liposomes composed of sphingomyelin (SM), phosphatidylethanolamine (PE) dipalmitoyl-phosphatidylcholine ((DPPC), phosphatidylserine (PS), palmitoyl-oleoyl-phosphatidylglycerol (POPG) and phosphatidylinositol (PI) were formed by bath-sonication for 30 min at room temperature. LPS (10 ng/ml) and different concentrations of phospholipids were added to monolayer cultures of differentiated U937 cells (A), or primary rat alveolar macrophages (B). At 6 h after stimulation, media were collected and secreted TNF-α levels were determined in U937 cultures. NO production was determined 24 h after stimulating rat alveolar macrophages. LPS stimulation in the absence of phospholipid was set as 100%. […] The average TNF-α production upon LPS stimulation was (8.0±0.54 ng/ml). The average NO production upon LPS stimulation was 12.17±0.27 μM.
FIG. 2. […]
Nitric oxide (NO) accumulation in the supernatant was determined as previously reported (28). […] Culture supernatants (usually […]) were combined with an equal volume of Greiss reagent, and the samples were incubated at room temperature for 10 min before the absorbance was quantified at 550 nm. With the use of a standard curve, the nmol of NO produced were determined and normalized to total cell number in each sample.

[2] = system: differentiated U937 cells; assay: LPS-induced TNF-α secretion by differentiated U937 cells; type: cell-based, human; settings: LPS 10 ng/ml, 6 h
Protocol: as §1
FIG. 2. The inhibitory effect of phosphatidylglycerols on LPS-induced inflammatory mediator production is molecular species specific. PG liposomes were formed by bath-sonication for 30 min at room temperature. LPS (10 ng/ml) and different concentrations of PG were added to monolayer cultures of differentiated U937 cells (A) or rat alveolar macrophages (B). […]
FIG. 3. […] 6 h after stimulation, media were collected and TNF-α production was determined. […]

Molecule | concentration of maximal inhibitory effect on NO production [1] [μg phospholipids/ml] | concentration of maximal inhibitory effect on TNF-α production [2] [μg phospholipids/ml]
CCCCCCCC/C=C\CCCCCCCC(=O)O[C@H](COC(=O)CCCCCCCCCCCCCCC)COP(=O)(O)OCC(O)CO (stereo partly shown) [POPG, palmitoyl-oleoyl-phosphatidylglycerol] | ≤ 2.5 | ≤ 2.5
phosphatidylinositol [PI] | ≤ 2.5 | ≤ 2.5
